# The whole screen tested about 330,000 compounds, of which about 7,700 (2.3%) were called active. The shares of active, inactive and inconclusive entries below differ from those in the screen. Calls come from the whole dose curve; as a rule, active = well fitted inhibition curve with a large enough effect; inconclusive = small, poorly fitted or top-dose-only effect, or effect the other way; inactive = flat fitted curve, though single readings scatter. Where the call is inconclusive, the potency comes from a doubtful curve fit.
# Assay: qHTS screen for small molecules that inhibit ELG1-dependent DNA repair in human embryonic kidney (HEK293T) cells expressing luciferase-tagged ELG1; note: nearly all actives have a fitted effect of over 55% in size
# Conditions: HEK293T ELG1-luciferase reporter, luminescence, 16 h, DNA damage induced by 5-fluorouridine; series mostly up to 46.1 µM
# Method in brief: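 Overnight (16 hr) co-exposure of 2,000 cells/well to 5-fluorouridine and compound at 37 °C preceded detection. Luciferase was quantified via ONE-Glo luminescence; loss of signal denotes inhibition.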
# Potency is the fitted concentration of half-maximal effect.
row,Compound,Potency
1,CCCNC(=S)NNC(=O)c1cc(-c2cccnc2)nc2ccccc12,inactive
2,Cc1ccccc1-c1nc(Cc2ccccc2)no1,"inconclusive: 20.6 µM [activator, partial curve]"
3,CC1(C)Cc2c(cnn2-c2cccc(F)c2)C(NC(=O)CSc2ccncc2)C1 (centres undefined),"inconclusive: 18.3 µM [inhibitor, partial curve]"
4,CCOC(=O)N1CCN(C(=O)COc2cccc3c2CCN(CC)C3=O)CC1,inactive
5,Cn1c(=O)n(C)c2cc(S(=O)(=O)NCC(=O)O)ccc21,"inconclusive: 0.146 µM [inhibitor, full curve]"
6,Cc1cc(C)n(-c2nc3sc4c(c3c3nnc(SCC(N)=O)n23)CC(C)(C)OC4)n1,"inconclusive: 29.1 µM [inhibitor, single point]"
7,Cc1cc(NC(=O)CSc2nc3ccccc3[nH]2)n(-c2ccccc2)n1,"inconclusive: 20.6 µM [inhibitor, partial curve]"
8,COc1ccc(CN2CCN(C(=O)c3cc(-c4cccnc4)nc4ccc(Cl)cc34)CC2)c(OC)c1OC,active: 9.2 µM
9,COc1cccc(NC(=O)Cc2cccs2)c1,"inconclusive: 18.4 µM [activator, single point]"
10,CCN1C(=O)c2cccc3c(S(=O)(=O)Nc4ccc(OC)cc4OC)ccc1c23,"inconclusive: 23.1 µM [inhibitor, single point]"
11,CCC(C)NC(=O)COC(=O)c1cc([N+](=O)[O-])ccc1Sc1nc(C)cs1 (centres undefined),"inconclusive: 18.4 µM [inhibitor, partial curve, poor fit]"
12,O=C(Nc1ccc(F)cc1)c1nc[nH]c1C(=O)Nc1ccccc1[N+](=O)[O-],"inconclusive: 20.6 µM [activator, single point]"
13,CC(=O)Nc1ccc(NC(=O)CSc2nc(N)c(NC(=O)c3ccco3)c(=O)[nH]2)cc1,"inconclusive: 18.3 µM [activator, single point]"
14,CCN1CCN(S(=O)(=O)c2ccc(Cl)c(C(=O)N(C)Cc3ccccc3)c2)CC1,inactive
15,CCn1c(CNC(=O)c2ccc(Cl)cc2)nnc1SCC(=O)N1CCOCC1,inactive
16,O=C(Cc1cccc(NC(=O)C2CCN(C(=O)CCc3ccccc3)CC2)c1)Nc1cccc(C(=O)N2CCCC2)c1,"inconclusive: 18.3 µM [inhibitor, single point]"
17,O=C1c2ccc(Cl)cc2S(=O)(=O)c2cccc(C(=O)N3CCN(c4ccc(Cl)cn4)CC3)c21,"inconclusive: 29.1 µM [inhibitor, single point]"
18,N#Cc1ccc(-c2ccc(OCC(=O)NN=Cc3ccncc3)cc2)cc1,"inconclusive: 18.3 µM [inhibitor, partial curve, poor fit]"
19,CC(C(=O)Nc1ccccc1F)N1CCN(C)CC1 (centres undefined),inactive
20,CC(=O)Nc1ccc(NC(=O)CSc2nnc(-c3ccccc3)n2Cc2ccc3c(c2)OCO3)cc1,"inconclusive: 35.5 µM [inhibitor, single point]"
21,CCCS(=O)(=O)N1CCN(Cc2ccccc2[N+](=O)[O-])CC1,inactive
22,CCN1CCN(c2cc(C)c3cc(NC(=O)c4ccc(OC)c(OC)c4)ccc3n2)CC1,"inconclusive: 29.1 µM [inhibitor, single point]"

# Exported tab-delimited: part of the list above.
row	Compound	Potency
2	Cc1ccccc1-c1nc(Cc2ccccc2)no1	inconclusive: 20.6 µM [activator, partial curve]
3	CC1(C)Cc2c(cnn2-c2cccc(F)c2)C(NC(=O)CSc2ccncc2)C1 (centres undefined)	inconclusive: 18.3 µM [inhibitor, partial curve]
9	COc1cccc(NC(=O)Cc2cccs2)c1	inconclusive: 18.4 µM [activator, single point]

# (further entries)

row,Compound,Potency
1,O=C(CSc1nnc(-c2ccco2)n1Cc1ccccc1)NC(=O)NCc1ccccc1,active: 18.4 µM
2,CCc1cc2c(SCc3nc4sc(C(C)=O)c(C)c4c(=O)[nH]3)ncnc2s1,"inconclusive: 29.1 µM [inhibitor, single point]"
3,CSCCC(NC(=O)c1ccccc1Cl)C(=O)Nc1ccc(C)c(S(=O)(=O)N2CCOCC2)c1 (centres undefined),"inconclusive: 3.66 µM [inhibitor, single point]"
4,COc1ccc(CCN2CC(C(=O)N(C)Cc3ccc(C)o3)CCC2=O)cc1 (centres undefined),"inconclusive: 20.6 µM [activator, partial curve]"
5,COc1ccc(NS(=O)(=O)c2cc(NC(=O)c3cnccn3)ccc2N2CCCC2)cc1,"inconclusive: 29.1 µM [inhibitor, single point]"
6,Cc1ccc2nc(SCC(=O)c3ccccc3)nc(=O)n2c1,"inconclusive: 14.6 µM [activator, partial curve]"
7,CCn1c(=O)cc(NC2=NCC(C)CN2c2cccc(Cl)c2)n(C)c1=O (centres undefined),"inconclusive: 2.31 µM [inhibitor, partial curve, poor fit]"
8,O=C(Cn1c2ccccc2c2nc3n(c(=O)c21)CCCS3)Nc1ccccc1,active: 5.17 µM
9,Cc1cc(C)n(-c2ccc(OCC(=O)O)nn2)n1,inactive
10,COc1ccc(CN(C)C(=O)C23CC4CC(CC(C4)C2)C3)c(OC)c1,inactive
11,CC1(C)CN=c2s/c(=C\c3ccc(Cl)cc3)c(=O)n2C1,"inconclusive: 20.6 µM [activator, single point]"
12,CN(C)c1cc(Nc2ccc(O)cc2)c([N+](=O)[O-])c2nonc12,inactive
13,CNC(=O)NC(=S)NC(=O)c1ccccc1Cl,inactive
14,c1ccc(-c2cc3c(N4CCN(c5ccccc5)CC4)ncnc3s2)cc1,"inconclusive: 29.1 µM [inhibitor, single point]"
15,COc1ccc(N2CCN(C(=O)CCS(=O)(=O)c3ccc4c(c3)CCN4C(=O)C3CC3)CC2)cc1,"inconclusive: 20.6 µM [inhibitor, single point]"
16,O=c1cc(-c2ccc(O)cc2)oc2c(C3O[C@H](CO)[C@@H](O)[C@H](O)[C@H]3O)c(O)cc(O)c12 (some centres undefined),inactive
17,O=C(c1cccc(COc2cccc3ccccc23)c1)N1CCCC1,"inconclusive: 20.6 µM [activator, partial curve]"
18,CCCc1cc(=O)oc2cc(OCC(=O)NC3CCN(Cc4ccccc4)CC3)ccc12,inactive
19,O=C(NC(=S)N1CCN(c2ccc([N+](=O)[O-])cc2)CC1)c1ccc(F)cc1,inactive
20,CN(C(=O)c1ccc(C#N)cc1)c1nnc(-c2cnccn2)s1,inactive
21,CC(CC(=O)NCc1ccc(F)cc1)c1ccccc1 (centres undefined),inactive
22,COc1cccc(C(=O)Nc2cc(C(=O)NCc3ccc(C)cc3)ccc2N2CCC3(CC2)CC(c2ccccc2)=NO3)c1,inactive
